Results deposited as PubChem BioAssay AID1259254 (NCATS, 2017)

Assay: 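Gene knock-downs that lead to re-replication, shown by excess G2 DNA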 (primary screen)
Cell system: human HCT116 colorectal cancer cells
Reagents: single siRNA against human genes
Timing: 3 days
Measured: 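Nuclei stained with Hoechst and imaged; cell-cycle phase assigned by DNA content; G2 share scaled per plate, non-targeting siRNA 0%, GMNN siRNA 100%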
Reading the numbers: G2 robust z-score and G2 cells, % of GMNN control: higher = more G2 cells, more excess DNA replication; raw share of cells in G2: higher = larger share of cells with G2 DNA content
Call rule: 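An siRNA counts as active if its G2 robust z-score lies at least 5 MADs above the screen median; here such calls match roughly 38% of GMNN control or more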
Shown is an unselected part of about 59,000 reagents. Over the whole deposit, about 1,550 (2.6%) are marked active. 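G2 share is only a proxy for re-replication; each gene was hit by three separate siRNAs, and active genes were retested.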 The raw values are shown without normalisation. The numbers tell different reagents against one gene apart. No sequences are given here. Not given: the amount of reagent.

G2 robust z-score | G2 cells, % of GMNN control | raw share of cells in G2 (%) | Call | target | reagent
-1.42 | -7.04 | 1.6 | inactive | LOC732226 (retired record) | 1
0.702 | 7.91 | 6.05 | inactive | LOC732226 (retired record) | 2
-0.63 | -1.46 | 2.4 | inactive | LOC732226 (retired record) | 3
0.38 | 5.64 | 6.57 | inactive | MYDGF | 1
2 | 17 | 12.6 | inactive | MYDGF | 2
0.276 | 4.91 | 4.58 | inactive | MYDGF | 3
-0.73 | -2.17 | 3.02 | inactive | C9orf152 | 1
0.531 | 6.7 | 6.18 | inactive | C9orf152 | 2
-0.138 | 1.99 | 5.62 | inactive | C9orf152 | 3
2.21 | 18.5 | 10 | inactive | CDAN1 | 1
0.196 | 4.35 | 4.25 | inactive | CDAN1 | 2
-0.573 | -1.07 | 2.7 | inactive | CDAN1 | 3
-0.258 | 1.15 | 3.49 | inactive | SYT6 | 1
0.217 | 4.5 | 4.73 | inactive | SYT6 | 2
-0.659 | -1.67 | 2.94 | inactive | SYT6 | 3
-0.83 | -2.88 | 3.19 | inactive | TAP1 | 1
3.54 | 27.9 | 14.6 | inactive | TAP1 | 2
-1.24 | -5.76 | 2.48 | inactive | TAP1 | 3
-0.57 | -1.04 | 3.64 | inactive | ALG10 | 1
0.187 | 4.28 | 4.34 | inactive | ALG10 | 2
0.512 | 6.57 | 5.01 | inactive | ALG10 | 3
4.47 | 34.4 | 20.2 | inactive | CPNE6 | 1
1.52 | 13.7 | 10.1 | inactive | CPNE6 | 2
0.964 | 9.75 | 8.2 | inactive | CPNE6 | 3
2.39 | 19.7 | 14.3 | inactive | HTATIP2 | 1
1.23 | 11.6 | 8.79 | inactive | HTATIP2 | 2
-0.108 | 2.21 | 4.21 | inactive | HTATIP2 | 3
-0.559 | -0.963 | 3.15 | inactive | CD70 | 1
0.647 | 7.52 | 8.83 | inactive | CD70 | 2
-0.0373 | 2.71 | 5.08 | inactive | CD70 | 3
0.667 | 7.66 | 7.97 | inactive | PALS1 | 1
-1.16 | -5.2 | 3.3 | inactive | PALS1 | 2
2.74 | 22.2 | 10.8 | inactive | PALS1 | 3
-0.746 | -2.28 | 3.5 | inactive | ZBP1 | 1
0.253 | 4.75 | 6.38 | inactive | ZBP1 | 2
-0.0545 | 2.58 | 3.08 | inactive | ZBP1 | 3
0.0181 | 3.09 | 5.96 | inactive | LIPT2 | 1
-0.554 | -0.932 | 3.45 | inactive | LIPT2 | 2
-0.496 | -0.522 | 3.18 | inactive | LIPT2 | 3
0.00272 | 2.99 | 4.18 | inactive | NDUFA3 | 1
-0.644 | -1.56 | 4.76 | inactive | NDUFA3 | 2
0.541 | 6.77 | 8.15 | inactive | NDUFA3 | 3

6 entries from above, arranged by “G2 cells, % of GMNN control”, highest first:
G2 robust z-score | G2 cells, % of GMNN control | raw share of cells in G2 (%) | Call | target | reagent
2.21 | 18.5 | 10 | inactive | CDAN1 | 1
2 | 17 | 12.6 | inactive | MYDGF | 2
0.531 | 6.7 | 6.18 | inactive | C9orf152 | 2
0.276 | 4.91 | 4.58 | inactive | MYDGF | 3
-0.138 | 1.99 | 5.62 | inactive | C9orf152 | 3
-0.73 | -2.17 | 3.02 | inactive | C9orf152 | 1

Next reagents follow:
G2 robust z-score | G2 cells, % of GMNN control | raw share of cells in G2 (%) | Call | target | reagent
-0.559 | -0.962 | 3.51 | inactive | KNCN | 1
-0.231 | 1.34 | 3.33 | inactive | KNCN | 2
-0.573 | -1.06 | 2.7 | inactive | KNCN | 3
2.48 | 20.4 | 14.2 | inactive | CUL1 | 1
8.18 | 60.5 | 27.9 | active | CUL1 | 2
8.15 | 60.3 | 24.7 | active | CUL1 | 3
-0.497 | -0.527 | 3.6 | inactive | GULP1 | 1
-1.36 | -6.58 | 2.97 | inactive | GULP1 | 2
-0.488 | -0.465 | 4.07 | inactive | GULP1 | 3
6.2 | 46.6 | 19.1 | active | WDR1 | 1
0.266 | 4.84 | 7.03 | inactive | WDR1 | 2
4.24 | 32.8 | 18.1 | inactive | WDR1 | 3
-0.0448 | 2.65 | 5.96 | inactive | DNASE1L3 | 1
-0.239 | 1.28 | 5.42 | inactive | DNASE1L3 | 2
1.54 | 13.8 | 8.86 | inactive | DNASE1L3 | 3
1.74 | 15.2 | 9.25 | inactive | CARHSP1 | 1
0.851 | 8.95 | 9.96 | inactive | CARHSP1 | 2
-0.102 | 2.25 | 4.64 | inactive | CARHSP1 | 3
1.86 | 16.1 | 9.52 | inactive | LINC01100 | 1
1.09 | 10.6 | 7.84 | inactive | LINC01100 | 2
0.053 | 3.34 | 4.88 | inactive | LINC01100 | 3
1.51 | 13.6 | 10.1 | inactive | PLBD1 | 1
-0.685 | -1.85 | 3.49 | inactive | PLBD1 | 2
-0.506 | -0.594 | 2.21 | inactive | PLBD1 | 3
2.74 | 22.2 | 14 | inactive | SEPTIN2 | 1
-0.621 | -1.4 | 2.73 | inactive | SEPTIN2 | 2
1.08 | 10.6 | 9.66 | inactive | SEPTIN2 | 3
